Experiment: F-18 labeling (Al18F labeling efficiency by ITLC)
Conditions: ^18F labeling with Al^18F, 0.1 M sodium acetate buffer, 110° C., 10 min; ITLC-SG, 75% MeCN

Compound	Labeling efficiency(%)
O=C(O)CCN1CCN(CC(=O)O)CCN(CC(=O)O)CC1 [Comp. Ex. 2, 4,7-bis(tert-butoxycarbonylmethyl)-1,4,7-triazonanane-1-propionic acid]	23.6
O=C(O)CCC(=O)N1CCN(CC(=O)O)CCN(CC(=O)O)CC1 [Comp. Ex. 5, 4,7-bis(carboxymethyl)-1,4,7-triazononane-1-oxo-butyric acid]	32.9
O=C(O)CCCN1CCN(CC(=O)O)CCN(CC(=O)O)CC1 [Example 1, 4,7-bis(carboxymethyl)-1,4,7-triazonane-1-butyric acid]	86.1
O=C(O)CCCCN1CCN(CC(=O)O)CCN(CC(=O)O)CC1 [Example 2, 4,7-bis(carboxymethyl)-1,4,7-triazonane-1-pentanoic acid]	77.8
O=C(O)CN1CCN(CC(=O)O)CCN(Cc2ccccc2)CC1 [NO2A-Bz, 1-benzyl-4,7-bis(carboxymethyl)-1,4,7-triazonane]	83.0
O=C(O)CN1CCN(CC(=O)O)CCN(CC(=O)O)CC1 [NOTA]	10.9
